Experimental data as given in patent US6358738.
These are yes or no findings as the source states them, for the method shown. Some binding calls cover weakened binding; strength is not graded here. Sequences can lack the tags named with a protein.

Chains of the proteins cited; added tags and fusions are not shown. Lines headed by an entry give the natural chain unless they say otherwise; changes in a name come on top.
UniProt Q07832: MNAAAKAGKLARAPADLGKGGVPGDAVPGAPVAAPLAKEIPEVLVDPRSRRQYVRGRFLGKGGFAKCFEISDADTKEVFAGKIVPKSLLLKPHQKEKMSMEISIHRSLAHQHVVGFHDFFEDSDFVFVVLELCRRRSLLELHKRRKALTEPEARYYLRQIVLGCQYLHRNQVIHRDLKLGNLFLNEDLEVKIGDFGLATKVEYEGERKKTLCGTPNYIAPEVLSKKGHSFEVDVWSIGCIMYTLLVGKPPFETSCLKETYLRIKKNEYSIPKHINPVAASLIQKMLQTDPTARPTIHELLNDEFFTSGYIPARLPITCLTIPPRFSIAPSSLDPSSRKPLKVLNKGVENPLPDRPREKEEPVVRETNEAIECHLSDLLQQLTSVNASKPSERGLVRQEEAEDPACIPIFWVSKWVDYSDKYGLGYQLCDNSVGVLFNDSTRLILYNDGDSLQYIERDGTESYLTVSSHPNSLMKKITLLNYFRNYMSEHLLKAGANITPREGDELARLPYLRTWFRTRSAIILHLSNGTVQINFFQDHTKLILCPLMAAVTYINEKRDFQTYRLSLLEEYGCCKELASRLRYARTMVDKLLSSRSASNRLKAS

B1: translationally controlled tumor protein TCTP/p23, clones from HeLa cell cDNA library fused to a GAL4 activation domain (protein, not shown: large carriers)
chain: MIIYRDLISHDEMFSDIYKIREIADGLCLEVEGKMVSRTEGNIDDSLIGGNASAEGPEGEGTESTVITGVDIVMNHHLGETSFTKEAYKKYIKDYMKSIKGKLEEGRPERVKPFMTGAAEGIKHILANFKNYGFFIGENMNPDGMVALLDYREDGVTPYMIFFKDGLEMEKC
B2: GST-fusion protein of full-length TCTP/p23 (protein, not shown: a dimerising Fc or GST)
chain: MIIYRDLISHDEMFSDIYKIREIADGLCLEVEGKMVSRTEGNIDDSLIGGNASAEGPEGEGTESTVITGVDIVMNHHLGETSFTKEAYKKYIKDYMKSIKGKLEEGRPERVKPFMTGAAEGIKHILANFKNYGFFIGENMNPDGMVALLDYREDGVTPYMIFFKDGLEMEKC

What was measured:
[1] = molecular target: full-length Plk fused to a GAL4 DNA-binding domain (murine (mammalian Plk)); test: yeast two-hybrid screen, HeLa cDNA library fused to GAL4 activation domain against full-length Plk fused to GAL4 DNA-binding domain
[2] = molecular target: HA-Plk (murine (mammalian Plk)) (UniProt Q07832); test: interaction of recombinant proteins produced in insect cells with baculovirus (GST-fusion)

Binder | binding [1] | binding [2]
B1 | binds | 
B2 |  | binds
